PubChem BioAssay AID1259327 | Drosophila RNAi Screening Center | 2017
In all, the deposit lists about 3,100 reagents; below is a part drawn at random. 378 of them (12%) count as active. 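Hits include both directions; z-score sign shows ATP rise or fall; raw luminescence values are not plate-normalised.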 Not given: the amount of reagent.

Purpose: 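Data from controls in screens of zinc and manganese toxicity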
Cells: Drosophila S2R+ cells
Reagent: long dsRNA against Drosophila genes
Timing: 5 days (water added on day 4, read one day later)
Challenge: water added as vehicle, no metal, one day before read-out
Measured: 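Total ATP measured by luciferase light, scaled to plate mean, duplicates averaged, then z-scored across plates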
Reading the numbers: ATP z-score: higher = more total ATP than typical wells; ATP luminescence: higher = more total ATP
Rule for the call: 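a hit is any knock-down whose absolute ATP z-score is greater than 1.5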
Meaning of the calls: active = hit: ATP up or down; inactive = no clear ATP change

With knock-down of CG32986 [DRSC02509], the screen gave ATP z-score, duplicate mean -0.396; ATP luminescence, replicate 1 (RLU) = 7.21e5; ATP luminescence, replicate 2 (RLU) = 6.48e5; inactive. CG32986 [DRSC39699] showed ATP z-score, duplicate mean -0.783; ATP luminescence, replicate 1 (RLU) = 4.25e5; ATP luminescence, replicate 2 (RLU) = 3.98e5; inactive. Silencing of iav (inactive) [DRSC25119] gave: ATP z-score, duplicate mean -1.72; ATP luminescence, replicate 1 (RLU) = 5.34e5; ATP luminescence, replicate 2 (RLU) = 6.89e5; active. iav (inactive) [DRSC39553] scored ATP z-score, duplicate mean -1.21; ATP luminescence, replicate 1 (RLU) = 3.70e5; ATP luminescence, replicate 2 (RLU) = 3.96e5; inactive. Depletion of Ir68b (Ionotropic receptor 68b) [DRSC10251] resulted in: ATP z-score, duplicate mean 2.01; ATP luminescence, replicate 1 (RLU) = 1.22e6; ATP luminescence, replicate 2 (RLU) = 1.10e6; active. Depletion of Ir68b (Ionotropic receptor 68b) [DRSC39424] gave: ATP z-score, duplicate mean 0.291; ATP luminescence, replicate 1 (RLU) = 5.07e5; ATP luminescence, replicate 2 (RLU) = 4.40e5; inactive.

After knock-down of shakB (shaking B) [DRSC20585], the record shows ATP z-score, duplicate mean -0.675; ATP luminescence, replicate 1 (RLU) = 6.66e5; ATP luminescence, replicate 2 (RLU) = 6.73e5; inactive. With knock-down of shakB (shaking B) [DRSC22817] the results were ATP z-score, duplicate mean -1.18; ATP luminescence, replicate 1 (RLU) = 5.27e5; ATP luminescence, replicate 2 (RLU) = 4.31e5; inactive. After knock-down of shakB (shaking B) [DRSC26262], the screen gave ATP z-score, duplicate mean 0.413; ATP luminescence, replicate 1 (RLU) = 9.16e5; ATP luminescence, replicate 2 (RLU) = 8.87e5; inactive. Against OtopLc (Otopetrin-like c) [DRSC18132] the deposit lists ATP z-score, duplicate mean 0.533; ATP luminescence, replicate 1 (RLU) = 7.50e5; ATP luminescence, replicate 2 (RLU) = 6.95e5; inactive. Knock-down of OtopLc (Otopetrin-like c) [DRSC25756] resulted in: ATP z-score, duplicate mean -0.914; ATP luminescence, replicate 1 (RLU) = 7.14e5; ATP luminescence, replicate 2 (RLU) = 7.12e5; inactive. Silencing of CG8026 [DRSC07056] gave: ATP z-score, duplicate mean -0.818; ATP luminescence, replicate 1 (RLU) = 5.45e5; ATP luminescence, replicate 2 (RLU) = 5.46e5; inactive.

Against CG8399 [DRSC07163], the entry reads ATP z-score, duplicate mean -0.729; ATP luminescence, replicate 1 (RLU) = 6.02e5; ATP luminescence, replicate 2 (RLU) = 7.06e5; inactive. Knock-down of CG8399 [DRSC39793] gave: ATP z-score, duplicate mean -1.13; ATP luminescence, replicate 1 (RLU) = 3.90e5; ATP luminescence, replicate 2 (RLU) = 4.11e5; inactive. CG10183 [DRSC14203] scored ATP z-score, duplicate mean 0.772; ATP luminescence, replicate 1 (RLU) = 3.25e5; ATP luminescence, replicate 2 (RLU) = 8.68e5; inactive. With knock-down of CG10183 [DRSC25343] the results were ATP z-score, duplicate mean -0.0573; ATP luminescence, replicate 1 (RLU) = 8.33e5; ATP luminescence, replicate 2 (RLU) = 8.54e5; inactive.

3 entries from above, arranged by “ATP z-score, duplicate mean”, low to high:
iav (inactive) [DRSC25119] — ATP z-score, duplicate mean: -1.72; ATP luminescence, replicate 1 (RLU): 5.34e5; ATP luminescence, replicate 2 (RLU): 6.89e5; outcome: active
CG32986 [DRSC39699] — ATP z-score, duplicate mean: -0.783; ATP luminescence, replicate 1 (RLU): 4.25e5; ATP luminescence, replicate 2 (RLU): 3.98e5; outcome: inactive
CG32986 [DRSC02509] — ATP z-score, duplicate mean: -0.396; ATP luminescence, replicate 1 (RLU): 7.21e5; ATP luminescence, replicate 2 (RLU): 6.48e5; outcome: inactive

Continued.
With knock-down of PGRP-SB2 (Peptidoglycan recognition protein SB2) [DRSC11092], the record shows ATP z-score, duplicate mean -0.629; ATP luminescence, replicate 1 (RLU) = 6.90e5; ATP luminescence, replicate 2 (RLU) = 6.57e5; inactive. bib (big brain) [DRSC03496] showed ATP z-score, duplicate mean -1.43; ATP luminescence, replicate 1 (RLU) = 3.51e5; ATP luminescence, replicate 2 (RLU) = 4.08e5; inactive. Knock-down of CG14777 [DRSC18563] gave: ATP z-score, duplicate mean -1.93; ATP luminescence, replicate 1 (RLU) = 5.76e5; ATP luminescence, replicate 2 (RLU) = 6.22e5; active. CG10182 [DRSC14202] showed ATP z-score, duplicate mean -0.865; ATP luminescence, replicate 1 (RLU) = 2.69e5; ATP luminescence, replicate 2 (RLU) = 6.46e5; inactive. For Gr22a (Gustatory receptor 22a) [DRSC26809], the entry reads ATP z-score, duplicate mean -0.771; ATP luminescence, replicate 1 (RLU) = 9.86e5; ATP luminescence, replicate 2 (RLU) = 9.43e5; inactive. Knock-down of mGluR (metabotropic Glutamate Receptor) [DRSC17215] resulted in: ATP z-score, duplicate mean 1.14; ATP luminescence, replicate 1 (RLU) = 5.41e5; ATP luminescence, replicate 2 (RLU) = 9.04e5; inactive.

Depletion of mGluR (metabotropic Glutamate Receptor) [DRSC39626] came out at: ATP z-score, duplicate mean 1.43; ATP luminescence, replicate 1 (RLU) = 5.95e5; ATP luminescence, replicate 2 (RLU) = 5.30e5; inactive. With knock-down of CG9308 [DRSC04539], the record shows ATP z-score, duplicate mean -0.0537; ATP luminescence, replicate 1 (RLU) = 6.95e5; ATP luminescence, replicate 2 (RLU) = 7.45e5; inactive. For CG9308 [DRSC28962] the deposit lists ATP z-score, duplicate mean 0.0522; ATP luminescence, replicate 1 (RLU) = 9.19e5; ATP luminescence, replicate 2 (RLU) = 7.47e5; inactive. For bond (james bond) [DRSC16135] the deposit lists ATP z-score, duplicate mean 0.0766; ATP luminescence, replicate 1 (RLU) = 7.26e5; ATP luminescence, replicate 2 (RLU) = 7.01e5; inactive. Knock-down of bond (james bond) [DRSC23724] gave: ATP z-score, duplicate mean 0.597; ATP luminescence, replicate 1 (RLU) = 9.75e5; ATP luminescence, replicate 2 (RLU) = 8.74e5; inactive. mthl12 (methuselah-like 12) [DRSC12964] showed ATP z-score, duplicate mean -0.0202; ATP luminescence, replicate 1 (RLU) = 7.01e5; ATP luminescence, replicate 2 (RLU) = 7.82e5; inactive.

Asph (Aspartyl beta-hydroxylase) [DRSC06783] gave ATP z-score, duplicate mean 0.809; ATP luminescence, replicate 1 (RLU) = 6.60e5; ATP luminescence, replicate 2 (RLU) = 7.26e5; inactive. Against Asph (Aspartyl beta-hydroxylase) [DRSC29507] the deposit lists ATP z-score, duplicate mean -0.241; ATP luminescence, replicate 1 (RLU) = 8.00e5; ATP luminescence, replicate 2 (RLU) = 7.87e5; inactive.
